These are yes or no findings as the source states them, for the method shown. For some assays here: Binding seen in cells or lysates may run through a third protein. Some results given as binding are weak or reduced against the parent protein; the word gives no strength.
Columns and labels:
[1] = target: endogenous SET/TAF-Iβ of MEF cells (mouse (endogenous in MEF)) (UniProt Q9EQU5); experiment: proximity ligation; in situ PLA in fixed Cc-/- MEF transfected with Myc-tagged Cc, mouse anti-Myc and rabbit anti-SET antibodies; basal DNA damage
[2] = target: SET/template-activating factor Iβ (SET/TAF-Iβ), recombinant (UniProt Q01105); experiment: NMR titration; competition: 13 μM reduced WT Cc with 3.5 μM SET/TAF-Iβ, 5-40 μg calf thymus histone mix added, recovery of the Met80-εCH3 signal; 10 mM sodium phosphate pH 7.4, 298 K; both purified
[3] = target: BSA (bovine (from the name BSA)) (UniProt P02769); experiment: NMR titration; 1D 1H NMR of the Met80-εCH3 signal of 13 μM reduced Cc with 1.75 and 3.5 μM SET/TAF-Iβ, or 3.5 μM BSA as control; 10 mM sodium phosphate pH 7.4, 5 equivalents of sodium ascorbate, 298 K; both purified
[4] = target: SET/template-activating factor Iβ (SET/TAF-Iβ), recombinant (UniProt Q01105); experiment: as above

Chains of the proteins cited; added tags and fusions are not shown. Lines headed by an entry give the natural chain unless they say otherwise; changes in a name come on top. A line that says so, or that is headed by a name, gives the form on record, which may keep a tag or linker. Residues count along the entry.
endogenous SET/TAF-Iβ of MEF cells (mouse (endogenous in MEF)) (Q9EQU5, form named): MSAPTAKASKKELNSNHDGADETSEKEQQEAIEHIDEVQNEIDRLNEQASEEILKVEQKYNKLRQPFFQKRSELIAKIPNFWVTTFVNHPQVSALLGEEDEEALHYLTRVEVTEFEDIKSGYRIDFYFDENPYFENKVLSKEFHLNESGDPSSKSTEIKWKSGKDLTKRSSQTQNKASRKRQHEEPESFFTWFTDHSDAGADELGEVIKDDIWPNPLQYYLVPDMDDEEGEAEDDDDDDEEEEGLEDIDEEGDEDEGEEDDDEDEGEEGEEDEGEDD
SET/template-activating factor Iβ (SET/TAF-Iβ), recombinant (Q01105, form named): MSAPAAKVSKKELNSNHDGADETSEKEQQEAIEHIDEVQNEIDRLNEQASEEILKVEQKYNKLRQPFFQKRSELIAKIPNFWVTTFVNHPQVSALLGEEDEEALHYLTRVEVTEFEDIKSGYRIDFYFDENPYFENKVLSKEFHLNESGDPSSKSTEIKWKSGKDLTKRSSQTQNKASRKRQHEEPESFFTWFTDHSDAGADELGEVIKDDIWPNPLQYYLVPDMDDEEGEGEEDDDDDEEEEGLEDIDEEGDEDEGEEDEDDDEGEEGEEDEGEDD
UniProt P02769, residues 25-607: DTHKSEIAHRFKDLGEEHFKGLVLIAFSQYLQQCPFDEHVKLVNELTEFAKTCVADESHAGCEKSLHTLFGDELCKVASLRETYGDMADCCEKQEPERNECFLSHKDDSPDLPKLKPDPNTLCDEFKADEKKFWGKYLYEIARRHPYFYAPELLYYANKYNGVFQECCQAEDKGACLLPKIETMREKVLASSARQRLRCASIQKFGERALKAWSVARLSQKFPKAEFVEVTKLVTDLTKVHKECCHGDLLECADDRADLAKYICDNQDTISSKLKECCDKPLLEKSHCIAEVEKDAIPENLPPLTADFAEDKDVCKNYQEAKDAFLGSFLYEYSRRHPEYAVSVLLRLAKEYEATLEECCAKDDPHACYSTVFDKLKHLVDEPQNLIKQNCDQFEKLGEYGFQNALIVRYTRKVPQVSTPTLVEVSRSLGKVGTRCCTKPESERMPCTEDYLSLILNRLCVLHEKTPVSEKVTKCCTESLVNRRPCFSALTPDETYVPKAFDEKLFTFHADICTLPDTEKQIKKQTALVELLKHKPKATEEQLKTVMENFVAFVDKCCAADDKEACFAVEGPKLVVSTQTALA
wild-type cytochrome c (reduced) (P99999, residues 2-105): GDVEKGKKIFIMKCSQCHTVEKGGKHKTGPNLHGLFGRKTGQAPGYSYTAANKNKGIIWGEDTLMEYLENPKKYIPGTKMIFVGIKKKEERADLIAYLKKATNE
Myc-tagged Y48D human cytochrome c expressed in Cc-/- MEF cells (P99999, form named): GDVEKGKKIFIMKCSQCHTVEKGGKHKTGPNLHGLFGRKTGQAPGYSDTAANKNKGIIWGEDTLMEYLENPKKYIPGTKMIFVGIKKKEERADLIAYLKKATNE

Substance | binding [1] | binding [2] | binding [3] | binding [4]
Myc-tagged Y48D human cytochrome c expressed in Cc-/- MEF cells (from UniProt P99999 2-105) | binds | – | – | –
Myc-tagged wild-type human cytochrome c expressed in Cc-/- MEF cells (from UniProt P99999 2-105) | binds | – | – | –
wild-type cytochrome c (reduced) (from UniProt P99999 2-105) | – | binds | no binding (tested: 3.5 μM BSA) | binds

Source: article PMC11568366
